Test results reported in US20150329864A1, “DESIGN OF OLIGONUCLEOTIDE ANALOGS AS THERAPEUTIC AGENTS” (SPRING BANK PHARMACEUTICALS, INC., priority 2010, published 2015).
Entries after “also recorded” stand apart in the source; their conditions may differ. At least one compound was matched to its structure with a doubt left.

Tests used:
NOD2 = assay: IRF3 induction in HEK cells with or without transfected NOD2; assay type: cell-based
[1] = test system: extra-erythrocytically expressed hemoglobin (EEEH); assay: EEEH expression (SDS PAGE) in HBV transgenic mice treated with Compound 6k; assay type: in vivo; conditions: mouse plasma, 1, 10, 100 mg of 6k
RIG-I = target: T1, RIG-I (Homo sapiens, UniProt O95786); assay: RIG-I translocation on dsRNA, single-molecule PIFE assay; assay type: biochemical
T1 sequence (O95786 1-925): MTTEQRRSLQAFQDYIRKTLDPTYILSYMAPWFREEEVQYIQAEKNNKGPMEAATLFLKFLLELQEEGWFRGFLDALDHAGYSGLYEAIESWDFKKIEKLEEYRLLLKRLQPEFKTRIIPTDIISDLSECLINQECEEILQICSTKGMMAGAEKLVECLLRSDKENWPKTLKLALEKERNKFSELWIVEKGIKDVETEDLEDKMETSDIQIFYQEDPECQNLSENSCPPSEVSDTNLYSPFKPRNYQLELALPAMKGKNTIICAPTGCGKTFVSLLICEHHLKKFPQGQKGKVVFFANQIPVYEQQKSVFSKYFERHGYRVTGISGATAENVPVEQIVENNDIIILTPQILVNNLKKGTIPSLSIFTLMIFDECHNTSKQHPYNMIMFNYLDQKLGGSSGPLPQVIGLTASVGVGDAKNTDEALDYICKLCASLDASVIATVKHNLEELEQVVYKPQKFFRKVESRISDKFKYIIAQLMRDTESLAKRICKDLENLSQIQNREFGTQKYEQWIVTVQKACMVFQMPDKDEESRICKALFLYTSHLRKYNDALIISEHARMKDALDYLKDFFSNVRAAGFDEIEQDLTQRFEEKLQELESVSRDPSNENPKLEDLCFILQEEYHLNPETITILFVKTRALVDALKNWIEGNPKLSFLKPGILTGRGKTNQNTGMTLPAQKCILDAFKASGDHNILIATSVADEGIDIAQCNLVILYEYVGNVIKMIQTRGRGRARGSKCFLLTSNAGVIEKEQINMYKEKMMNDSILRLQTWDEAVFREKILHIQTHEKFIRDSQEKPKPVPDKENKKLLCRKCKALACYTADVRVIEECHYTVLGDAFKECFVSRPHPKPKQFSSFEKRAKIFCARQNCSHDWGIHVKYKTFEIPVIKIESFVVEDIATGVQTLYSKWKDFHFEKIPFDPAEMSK
Experimental: An in vitro single-molecule fluorescence assay termed PIFE (protein induced fluorescence enhancement) was employed to monitor such movement (Myong, S. et al., Science, 323, 1070, 2009).
For quantitation of RIG-I translocation, Single molecule PIFE yields were estimated. Single molecule PIFE yields are obtained from several hundred molecules simultaneously, allowing statistically reliable data collection.
The translocation as above was carried out using different concentrations of nucleotide compound.
A standard dsRNA (25 bp) was used as a main substrate for RIG-I translocation assay. […] The ratio between rapid (stimulated) translocation and slow translocation would be accounted for in the estimation of compound strength. In order to quantify the affinity of the compound to RIG-I or to RNA substrate, various concentrations of the compound (1-100 μM range) were used in the assay. This enabled the calculation of the association/dissociation constant for each compound, which was a useful measure to apply in cell-based evaluation of compound potency.
The same translocation assay was used on dsRNA, which contains […] moiety with and without the compound.

CO[C@H]1C(OP(=O)(OC[C@H]2O[C@@H](n3cnc4c(N)ncnc43)CC2O)SCOC(=O)OC(C)C)[C@@H](CO)O[C@H]1n1ccc(=O)[nH]c1=O (stereo partly shown) [Compound 6k]
induction of IRF3 (NOD2; HEK cells transfected with NOD2): cause induction of IRF3 | induction of IRF3 (NOD2; NOD2 deficient HEK cells): failed to induce IRF3 | EEEH expression [1]: dose-dependent expression of EEEH protein; also recorded: increased expression of extra-erythrocytically derived hemoglobin (EEEH) | RIG-I translocation on dsRNA (activity in words) (RIG-I): strong activators of RIG-I translocation
